# Data: paper PMC9525318
# The chains behind the UniProt entries cited, without tags or fusion partners. Where a name states a change or a piece, a line headed by the entry shows the natural chain unless it says otherwise. Residues count along the entry.
# UniProt Q01668: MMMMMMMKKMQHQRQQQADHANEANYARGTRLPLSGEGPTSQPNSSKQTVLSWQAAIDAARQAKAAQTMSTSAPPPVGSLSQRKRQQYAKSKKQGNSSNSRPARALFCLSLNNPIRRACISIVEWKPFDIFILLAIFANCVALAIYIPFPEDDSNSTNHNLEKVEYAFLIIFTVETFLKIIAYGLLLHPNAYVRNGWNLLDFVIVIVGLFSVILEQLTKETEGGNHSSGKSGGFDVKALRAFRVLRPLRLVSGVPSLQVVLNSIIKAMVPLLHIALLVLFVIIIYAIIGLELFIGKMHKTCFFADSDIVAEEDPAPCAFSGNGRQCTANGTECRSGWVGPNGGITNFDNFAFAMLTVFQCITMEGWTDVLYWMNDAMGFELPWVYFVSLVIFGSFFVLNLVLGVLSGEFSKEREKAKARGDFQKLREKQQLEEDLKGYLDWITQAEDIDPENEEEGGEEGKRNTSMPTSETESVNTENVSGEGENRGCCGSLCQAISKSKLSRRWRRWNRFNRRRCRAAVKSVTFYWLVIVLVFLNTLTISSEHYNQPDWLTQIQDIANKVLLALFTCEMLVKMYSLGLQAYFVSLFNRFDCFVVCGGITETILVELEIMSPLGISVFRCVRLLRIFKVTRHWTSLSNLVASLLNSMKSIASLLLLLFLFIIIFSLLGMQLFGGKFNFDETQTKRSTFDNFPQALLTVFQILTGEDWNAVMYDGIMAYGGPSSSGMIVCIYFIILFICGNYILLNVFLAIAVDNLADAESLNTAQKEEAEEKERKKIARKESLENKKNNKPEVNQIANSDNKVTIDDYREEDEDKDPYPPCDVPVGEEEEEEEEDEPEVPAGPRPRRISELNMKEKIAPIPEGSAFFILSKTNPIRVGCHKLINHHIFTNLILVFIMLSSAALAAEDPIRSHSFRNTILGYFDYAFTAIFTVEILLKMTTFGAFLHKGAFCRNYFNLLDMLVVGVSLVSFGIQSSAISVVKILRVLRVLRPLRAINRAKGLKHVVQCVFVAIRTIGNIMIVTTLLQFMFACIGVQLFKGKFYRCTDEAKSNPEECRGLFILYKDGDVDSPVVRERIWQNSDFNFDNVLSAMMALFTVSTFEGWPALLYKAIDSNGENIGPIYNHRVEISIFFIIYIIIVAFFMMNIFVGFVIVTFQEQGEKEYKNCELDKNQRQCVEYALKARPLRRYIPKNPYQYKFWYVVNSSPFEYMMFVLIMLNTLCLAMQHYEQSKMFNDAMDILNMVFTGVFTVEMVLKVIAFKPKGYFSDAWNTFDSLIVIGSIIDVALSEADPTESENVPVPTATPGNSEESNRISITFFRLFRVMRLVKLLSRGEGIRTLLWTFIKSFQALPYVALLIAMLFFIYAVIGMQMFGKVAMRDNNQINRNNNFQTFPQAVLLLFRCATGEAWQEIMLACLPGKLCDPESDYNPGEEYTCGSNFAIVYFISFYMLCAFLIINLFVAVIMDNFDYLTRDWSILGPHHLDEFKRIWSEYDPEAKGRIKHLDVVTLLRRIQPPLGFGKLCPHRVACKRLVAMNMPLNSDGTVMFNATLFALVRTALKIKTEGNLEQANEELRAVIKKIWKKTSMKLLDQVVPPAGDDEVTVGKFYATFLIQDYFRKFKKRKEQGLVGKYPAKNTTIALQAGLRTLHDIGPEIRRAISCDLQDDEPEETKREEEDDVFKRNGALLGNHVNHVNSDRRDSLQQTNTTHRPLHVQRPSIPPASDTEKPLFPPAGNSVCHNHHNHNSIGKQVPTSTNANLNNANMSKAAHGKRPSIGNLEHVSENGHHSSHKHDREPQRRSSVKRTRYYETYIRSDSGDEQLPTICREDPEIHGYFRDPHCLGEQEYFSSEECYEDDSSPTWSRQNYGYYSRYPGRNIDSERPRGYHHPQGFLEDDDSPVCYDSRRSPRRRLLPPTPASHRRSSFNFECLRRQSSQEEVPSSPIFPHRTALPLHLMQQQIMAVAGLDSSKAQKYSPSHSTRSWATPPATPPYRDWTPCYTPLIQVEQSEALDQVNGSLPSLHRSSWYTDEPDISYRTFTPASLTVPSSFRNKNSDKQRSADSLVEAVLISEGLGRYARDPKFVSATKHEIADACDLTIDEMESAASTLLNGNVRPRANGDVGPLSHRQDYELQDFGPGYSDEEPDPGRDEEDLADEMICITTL
# UniProt P54289, residues 25-1103: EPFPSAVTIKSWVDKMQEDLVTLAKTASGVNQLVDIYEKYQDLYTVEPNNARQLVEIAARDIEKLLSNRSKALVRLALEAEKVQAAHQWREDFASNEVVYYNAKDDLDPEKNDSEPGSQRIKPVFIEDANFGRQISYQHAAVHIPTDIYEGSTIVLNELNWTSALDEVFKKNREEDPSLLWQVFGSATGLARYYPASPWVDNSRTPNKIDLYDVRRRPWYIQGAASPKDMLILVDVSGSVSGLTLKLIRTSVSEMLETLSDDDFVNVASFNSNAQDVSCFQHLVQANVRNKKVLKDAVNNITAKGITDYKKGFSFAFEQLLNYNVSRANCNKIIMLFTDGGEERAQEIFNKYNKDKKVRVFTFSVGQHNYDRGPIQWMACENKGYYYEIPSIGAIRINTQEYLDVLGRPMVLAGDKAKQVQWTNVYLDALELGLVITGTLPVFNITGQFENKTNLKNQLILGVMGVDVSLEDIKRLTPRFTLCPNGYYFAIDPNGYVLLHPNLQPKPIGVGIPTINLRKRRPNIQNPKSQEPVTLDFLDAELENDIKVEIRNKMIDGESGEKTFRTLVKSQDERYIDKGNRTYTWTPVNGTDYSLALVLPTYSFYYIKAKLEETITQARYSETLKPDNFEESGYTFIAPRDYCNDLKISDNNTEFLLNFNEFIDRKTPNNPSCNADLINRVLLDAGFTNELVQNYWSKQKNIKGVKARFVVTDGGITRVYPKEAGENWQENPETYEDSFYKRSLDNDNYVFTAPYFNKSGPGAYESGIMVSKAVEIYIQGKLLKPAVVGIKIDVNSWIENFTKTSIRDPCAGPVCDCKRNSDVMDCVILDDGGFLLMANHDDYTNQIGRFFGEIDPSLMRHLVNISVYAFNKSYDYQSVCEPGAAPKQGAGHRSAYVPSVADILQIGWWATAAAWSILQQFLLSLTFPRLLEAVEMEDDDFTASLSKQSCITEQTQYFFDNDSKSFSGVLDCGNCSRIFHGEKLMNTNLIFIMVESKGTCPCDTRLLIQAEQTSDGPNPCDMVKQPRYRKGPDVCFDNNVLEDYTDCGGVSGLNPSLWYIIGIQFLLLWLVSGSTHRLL
# Results are given in words; binding and its absence hold for the method and conditions named. Some results given as binding are weak or reduced against the parent protein; the word gives no strength.
# Molecular target: human Cav1.3 pore-forming α1 subunit (human) (UniProt Q01668)
# Assay: cryo-EM structure; complex of α1, α2δ-1 and β3 co-expressed in HEK293F, purified by affinity and size exclusion chromatography; incubated with 250 μM cinnarizine or 150 μM cp-PYT (the latter taken as apo); both purified
substance,measurement,value
auxiliary α2δ-1 subunit of the human Cav1.3 complex (from UniProt P54289 25-1103),binding,binds
